Source: ChEMBL document CHEMBL3988442, “University of Dundee, Small-Polar-MMV Screening Library” (2021).

Protein sequences, listed by entry. Tags and fused reporters are not part of them. Residues count along the entry.
UniProt A4I591, 1-473: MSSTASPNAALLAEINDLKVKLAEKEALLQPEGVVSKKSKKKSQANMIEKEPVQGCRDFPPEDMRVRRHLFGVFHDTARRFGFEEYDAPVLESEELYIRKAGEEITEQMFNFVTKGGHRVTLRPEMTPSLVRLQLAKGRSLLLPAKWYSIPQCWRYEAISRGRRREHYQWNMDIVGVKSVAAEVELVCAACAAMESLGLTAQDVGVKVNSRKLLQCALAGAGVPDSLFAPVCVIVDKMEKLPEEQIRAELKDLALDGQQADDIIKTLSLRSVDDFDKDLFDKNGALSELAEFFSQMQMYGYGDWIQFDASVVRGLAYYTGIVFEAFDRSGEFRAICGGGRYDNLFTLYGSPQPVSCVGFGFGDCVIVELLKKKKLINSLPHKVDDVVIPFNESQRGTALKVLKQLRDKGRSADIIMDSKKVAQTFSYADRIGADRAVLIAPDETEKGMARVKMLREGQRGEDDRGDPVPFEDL
UniProt I6X8D2, whole entry: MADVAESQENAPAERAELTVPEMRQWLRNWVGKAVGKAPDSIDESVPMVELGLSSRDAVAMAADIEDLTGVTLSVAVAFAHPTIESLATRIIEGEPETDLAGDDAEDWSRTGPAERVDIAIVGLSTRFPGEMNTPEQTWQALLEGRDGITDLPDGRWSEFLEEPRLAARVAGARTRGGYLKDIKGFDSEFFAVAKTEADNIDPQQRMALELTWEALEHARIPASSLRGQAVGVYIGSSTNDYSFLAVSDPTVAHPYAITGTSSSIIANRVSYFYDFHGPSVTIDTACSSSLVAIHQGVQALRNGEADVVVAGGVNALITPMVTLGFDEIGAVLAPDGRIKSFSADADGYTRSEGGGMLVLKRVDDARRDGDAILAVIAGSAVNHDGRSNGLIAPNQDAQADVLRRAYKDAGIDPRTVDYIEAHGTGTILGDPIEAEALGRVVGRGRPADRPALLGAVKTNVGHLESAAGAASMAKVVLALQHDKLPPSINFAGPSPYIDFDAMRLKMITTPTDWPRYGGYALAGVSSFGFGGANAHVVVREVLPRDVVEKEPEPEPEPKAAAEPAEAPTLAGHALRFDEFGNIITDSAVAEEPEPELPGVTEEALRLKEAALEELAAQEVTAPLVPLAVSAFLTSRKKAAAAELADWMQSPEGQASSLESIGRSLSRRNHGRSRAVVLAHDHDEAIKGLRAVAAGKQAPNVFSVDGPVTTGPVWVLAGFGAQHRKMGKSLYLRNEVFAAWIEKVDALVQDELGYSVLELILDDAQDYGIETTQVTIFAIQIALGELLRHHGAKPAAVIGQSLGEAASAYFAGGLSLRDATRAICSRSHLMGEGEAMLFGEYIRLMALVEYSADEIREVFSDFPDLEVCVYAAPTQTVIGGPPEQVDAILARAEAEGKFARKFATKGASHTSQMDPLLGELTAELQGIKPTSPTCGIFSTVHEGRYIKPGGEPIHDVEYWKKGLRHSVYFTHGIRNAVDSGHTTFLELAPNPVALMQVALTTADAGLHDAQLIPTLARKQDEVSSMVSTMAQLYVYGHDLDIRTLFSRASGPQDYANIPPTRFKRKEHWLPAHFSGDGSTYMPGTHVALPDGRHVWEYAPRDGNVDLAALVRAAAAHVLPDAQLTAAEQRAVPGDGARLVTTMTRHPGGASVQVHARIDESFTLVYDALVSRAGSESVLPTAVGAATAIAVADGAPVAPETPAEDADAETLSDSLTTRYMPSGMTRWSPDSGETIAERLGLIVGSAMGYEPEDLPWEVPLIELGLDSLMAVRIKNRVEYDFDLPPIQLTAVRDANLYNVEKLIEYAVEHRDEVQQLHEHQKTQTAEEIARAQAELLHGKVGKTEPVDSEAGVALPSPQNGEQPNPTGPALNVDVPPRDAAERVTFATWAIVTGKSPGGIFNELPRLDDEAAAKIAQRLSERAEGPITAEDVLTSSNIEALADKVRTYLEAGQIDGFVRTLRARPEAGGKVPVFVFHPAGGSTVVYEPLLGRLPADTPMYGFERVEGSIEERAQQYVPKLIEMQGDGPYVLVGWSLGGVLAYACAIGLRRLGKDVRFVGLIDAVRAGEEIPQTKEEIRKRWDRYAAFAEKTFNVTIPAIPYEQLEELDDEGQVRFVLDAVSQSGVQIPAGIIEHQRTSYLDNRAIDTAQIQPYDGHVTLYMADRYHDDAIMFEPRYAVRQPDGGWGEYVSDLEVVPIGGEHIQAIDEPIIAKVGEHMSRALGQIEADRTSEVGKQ
UniProt P9WFT3, whole entry: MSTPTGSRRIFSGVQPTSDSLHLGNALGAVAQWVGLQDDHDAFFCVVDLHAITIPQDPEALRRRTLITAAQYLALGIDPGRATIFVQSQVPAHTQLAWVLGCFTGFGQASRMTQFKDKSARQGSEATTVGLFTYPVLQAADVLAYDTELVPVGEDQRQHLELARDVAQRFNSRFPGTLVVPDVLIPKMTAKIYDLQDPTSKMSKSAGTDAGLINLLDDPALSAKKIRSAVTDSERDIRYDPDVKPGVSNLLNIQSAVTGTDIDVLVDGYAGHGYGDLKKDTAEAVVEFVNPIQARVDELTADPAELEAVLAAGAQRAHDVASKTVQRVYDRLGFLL
UniProt Q4DA54, 1-478: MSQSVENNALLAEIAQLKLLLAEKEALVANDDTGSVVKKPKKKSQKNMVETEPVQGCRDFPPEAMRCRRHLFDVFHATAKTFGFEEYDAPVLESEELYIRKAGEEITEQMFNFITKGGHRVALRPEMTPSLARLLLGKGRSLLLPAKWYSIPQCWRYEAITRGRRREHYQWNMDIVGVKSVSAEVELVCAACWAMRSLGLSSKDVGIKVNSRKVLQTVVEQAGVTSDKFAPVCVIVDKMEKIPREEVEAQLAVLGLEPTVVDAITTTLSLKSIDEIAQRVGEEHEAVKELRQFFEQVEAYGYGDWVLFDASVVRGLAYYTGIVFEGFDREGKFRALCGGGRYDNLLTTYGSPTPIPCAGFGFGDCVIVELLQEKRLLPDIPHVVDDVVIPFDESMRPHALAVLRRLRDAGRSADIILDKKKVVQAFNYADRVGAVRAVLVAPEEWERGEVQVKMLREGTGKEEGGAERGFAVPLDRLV

LiHisRS: 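Histidine-tRNA ligase, Leishmania infantum (UniProt A4I591). Enzyme assay of histidyl-tRNA synthetase; the read-out is not stated. Tested at 30 µM. Higher reads as stronger inhibition (inferred: compounds with an IC50 in retests scored well above the rest). The assay is labelled LdHisRS but filed under L. infantum. About 69,000 compounds were tested under these conditions; 0.6% (about 410) showed 50% or more at least once.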
Pks13 thioesterase: 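Polyketide synthase Pks13, Mycobacterium tuberculosis (UniProt I6X8D2). Enzyme assay of the thioesterase domain of polyketide synthase 13; the read-out is not stated. Concentration: 30 µM. The record gives no direction; the compounds picked for IC50 retests had high values, so higher reads as stronger inhibition. Of about 67,000 compounds tested this way, about 300 (0.46%) reached 50% or more in at least one test.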
MtTrpRS: 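Tryptophan-tRNA ligase, Mycobacterium tuberculosis (UniProt P9WFT3). Enzyme assay of tryptophanyl-tRNA synthetase; the read-out is not stated. Compounds at 10 µM. Direction is not recorded; retested compounds ran higher, which suggests that high means inhibition. Of about 65,000 compounds tested this way, about 64 (0.098%) reached 50% or more in at least one test.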
TcHisRS: 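Enzyme assay of histidyl-tRNA synthetase; the read-out is not stated. Target: Histidine-tRNA ligase, Trypanosoma cruzi CL Brener (UniProt Q4DA54). Tested at 30 µM. Higher reads as stronger inhibition (inferred: compounds with an IC50 in retests scored well above the rest). Size under these conditions: about 69,000 compounds, about 31 of them at 50% or above in at least one test.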

Each number is a percent effect as filed.
The controls that fix the scale are not given in the record; negative values are as filed.
Compounds were drawn at random from those tested, without regard to their results.
A dash means the value is not listed here; it may have been measured.

| # | Compound | LiHisRS | Pks13 thioesterase | MtTrpRS | TcHisRS |
|---|---|---|---|---|---|
| 1 | `O=C(NCC1CCN(C(=O)c2ccoc2)CC1)c1ccccc1Br` | 23.08 | -12.42 | -0.4989 | 6.612 |
| 2 | `COc1ccc(OC)c(C2CCN(C(=O)[C@H]3CC[C@@H](O)CC3)C2)c1` (stereo partly drawn) | -10.53 | -33.89 | -0.5198 | 5.028 |
| 3 | `Cc1ccccc1C(C#N)NC(=O)CCCOc1cccnc1` (stereo not drawn) | 9.574 | -12.05 | -0.2581 | 8.081 |
| 4 | `CC(C)c1nccc(C2(c3ccccc3Cl)CCNCC2)n1` | 24.71 | -6.939 | 1.743 | 2.242 |
| 5 | `CNC(=O)NCC1CCC2(CCN(C(=O)c3ccccn3)CC2)CO1` (stereo not drawn) | 10 | -10.06 | - | 5.291 |
| 6 | `Cc1nn(C)c(Cl)c1C1CCCN1c1ncnc2[nH]ccc12` (stereo not drawn) | 17.24 | -7.515 | 16.08 | 2.618 |
| 7 | `COC[C@H]1CC[C@H]2[C@H](CCN2S(=O)(=O)c2ccccc2)O1` | 2.655 | 4.331 | -3.099 | 2.4 |
| 8 | `CS(=O)(=O)N1CCN(C(=O)CN2CCCc3c(F)cc(F)cc32)CC1` | 15.56 | -14.19 | 2.099 | 9.524 |
| 9 | `COC1CCN(S(=O)(=O)N2CCCC(c3cccc(C(=O)O)c3)C2)CC1` (stereo not drawn) | 8.197 | -15.49 | -2.551 | 3.488 |
| 10 | `Cc1cnc(CN2CCC(N(C)Cc3noc(C4CC4)n3)C2)o1` (stereo not drawn) | 13.68 | -30.68 | 11.19 | 2.564 |
| 11 | `c1cnnc(-c2noc(CCN3CCCO3)n2)c1` | 20.41 | -3.766 | 8.076 | 10 |
| 12 | `CCOCCOC(C)C(=O)Nc1ccnn1-c1ccccc1C` (stereo not drawn) | -3.371 | -2.292 | -3.317 | -0.5181 |
| 13 | `CCc1ncc(CNCc2cccnc2N(C)C)cn1` | 10.87 | -1.747 | 2.572 | -1.98 |
| 14 | `Cc1cc(C)c(CNC(=O)NCCNc2ccccn2)c(=O)[nH]1` | 8.791 | -8.675 | 1.854 | 5.422 |
| 15 | `CC(C)c1cc(C(=O)NCCn2nnc3ccccc32)no1` | -10.75 | -47.85 | -6.795 | -4.938 |
| 16 | `c1ncn(CC2CN(Cc3csc(C4CCCC4)n3)CCO2)n1` (stereo not drawn) | 7.576 | -7.421 | -0.2924 | 0 |
| 17 | `N#Cc1cccc(S(=O)(=O)Nc2c(F)cccc2N2CCCC2)c1` | 9.677 | 31.57 | -2.342 | 5.747 |
| 18 | `CN1CCN(C2CCN(Cc3ccc(Cl)cc3)CC2)C1=O` | 9.524 | -30.81 | -0.5623 | 6.061 |
| 19 | `CCCn1cc(CN2CCCC2c2nccc(CN(C)C)n2)cn1` (stereo not drawn) | 7.292 | -7.73 | - | 3.191 |
| 20 | `NCCO[C@H]1C[C@@H](O)C12CCN(C1Cc3ccccc3C1)CC2` | 10.2 | -17.77 | 17 | 1.026 |
| 21 | `O=S(=O)(Nc1nccs1)c1cc(Cl)cc2c1OCC2` | 10.34 | -13.93 | -3.067 | 5.759 |
| 22 | `CC1(C(=O)N2CCN(C3CCCC3)CC2)CNCCO1` (stereo not drawn) | 3.448 | 10.41 | -8.627 | 0 |
| 23 | `Cc1cccc2c1cnn2CCCNC(=O)C(C)C` | 17.92 | -17.29 | 3.728 | 1.674 |
| 24 | `O=C(c1ncccn1)N1CC[C@H]2OCC[C@@]2(COc2ccccn2)C1` | 17.11 | 3.127 | 0.9346 | 10.87 |
| 25 | `Cc1cc2c(N3CCC(N(C)CCc4cnn(C)c4)CC3)ncnc2s1` | 11.29 | -8.761 | -0.4504 | 3.509 |
| 26 | `NC1CCc2c(ccc(=O)n2Cc2ccncc2)C1` (stereo not drawn) | 27.18 | -26.2 | 9.135 | 4.854 |
| 27 | `COc1ccc(-c2noc(CCC(=O)N3CCOCC3(C)C)n2)cc1` | 4.464 | -7.429 | -3.939 | 5.172 |
| 28 | `CCCN1CCC(c2nc3ccc(-c4cccc(F)c4)cn3n2)CC1` | 11.88 | -10.16 | - | -0.5025 |
| 29 | `COc1cc(CC(O)CC#N)c(OC)c2c1OCO2` (stereo not drawn) | 15 | -25.31 | -3.82 | 5.682 |
| 30 | `CCOc1ncccc1NC(=O)c1cc(C)c(C)s1` | 16.35 | -41.41 | -2.275 | 4.878 |
| 31 | `NCC(=O)N1CCCC1c1n[nH]cc1-c1ccccc1F` (stereo not drawn) | 2.837 | -30.12 | 20.22 | 7.143 |
| 32 | `CCOC1CCCN(C(=O)NCCc2ccn(-c3ccccc3)n2)C1` (stereo not drawn) | 13.33 | -22.31 | -2.424 | -2.642 |
| 33 | `O=C(NCCC1=CCCCC1)c1cc(-c2ccc(O)cc2)n[nH]1` | 10.26 | -27.36 | 14.22 | 3.448 |
| 34 | `Cc1ncsc1C(=O)OCCN1CCCCCC1=O` | 13.25 | -1.427 | -0.7651 | 6.468 |
| 35 | `CC(C1CCN(Cc2ccc(OC(F)F)cc2)CC1)N1CCOCC1` (stereo not drawn) | 25 | -6.653 | 3.561 | -3.191 |
| 36 | `CCn1cc(N)c(-c2nnc3n2CCCC3)n1` | 10.31 | 14.53 | - | 5.78 |
| 37 | `CN(CCc1noc(C2CC2)n1)C(=O)CN1C(=O)COc2ccccc21` | 4 | -16.06 | 1.162 | 3.704 |
| 38 | `CO[C@H]1CCN(c2ccc(C)nn2)[C@H]1Cc1cnn(C)c1` | 23.08 | -5.296 | -0.7505 | 2.674 |
| 39 | `CCn1[nH]c(C)c2c(C(F)(F)F)cc(=O)nc1-2` | -5.882 | -7.485 | -4.658 | 8.995 |
| 40 | `CN(C)C1CCCN(C(=O)NCc2ccccc2-n2cccn2)C1` (stereo not drawn) | -1.724 | -15.49 | 6.138 | 1.695 |
| 41 | `CCCn1cc(C(=O)NCCS(N)(=O)=O)c2ccccc21` | -8.901 | 31.91 | 5.684 | 8.021 |
| 42 | `Nc1nnc(CCNc2ncnc3c2CCN(C(=O)C2CC2)C3)s1` | 15 | -13.54 | 6.452 | -1.299 |
| 43 | `Cc1ccc(N(Cc2ccco2)C(=O)CC2=NN(C)C(=O)C2)cc1` | 22.34 | 8.36 | 0.53 | 17.09 |
| 44 | `CCc1csc(C2CCCN(C(=O)c3ccc(=O)n(CC)n3)C2)n1` (stereo not drawn) | 0 | -21.58 | -4.966 | 6.322 |
| 45 | `CN1C(=O)CCc2cc(NC(=O)C3CCCC3)ccc21` | -3.478 | -2.638 | 17.1 | -1.031 |
| 46 | `Cc1cc(C)n(C2CCCN(C(=O)c3ccc(NC4CC4)nc3)C2)n1` (stereo not drawn) | 5.333 | -22.91 | -1.642 | 3.396 |
| 47 | `CCN(CC)C(=O)c1c(Cl)cnn1CC` | 14.43 | 25.45 | - | 5.78 |
| 48 | `CC(C)(C(N)=O)S(=O)(=O)c1ccc(Br)cc1` | 3.125 | -3.954 | -2.993 | 9.392 |
| 49 | `CC(C)c1nccn1C(C)C(=O)NC1CCOCC1` (stereo not drawn) | 16 | -44.73 | -1.451 | 0.5435 |
| 50 | `NS(=O)(=O)c1cc(C(=O)N2CCCC(n3ccnc3)C2)cs1` (stereo not drawn) | 10.26 | -31.08 | 2.896 | 4.843 |
| 51 | `COc1ccccc1COCC(O)CN1CC(n2cccn2)C1` (stereo not drawn) | 21.43 | -10.14 | -7.972 | 0 |
| 52 | `O=C([C@H]1C[C@H]2OCC[C@H]2N(CC2CC2)C1)N1CCCCO1` | 16 | -22.53 | 1.095 | 18.63 |
| 53 | `O=C(CCn1cc(Cl)cn1)N1CCN(CCOc2ccccc2)CC1` | -45.45 | -20.33 | 0.2018 | -1.087 |
| 54 | `CS(=O)(=O)NC[C@]12COC[C@H]1CN(CCc1ccccc1)C2` | 7.895 | -29.93 | 3.968 | -1.149 |
| 55 | `c1cnn(C[C@@H]2C[C@@H]3CN(CC4CC4)CC[C@@H]3N2c2nccs2)c1` | 13.21 | 3.531 | - | 1.111 |
| 56 | `CC(C)NC(=O)CNC(=O)N1CCc2c([nH]c3ccc(Cl)cc23)C1` | -13.16 | -52.31 | -2.731 | 2.924 |

Repeated from the top, 5 entries:

- O=C(NCC1CCN(C(=O)c2ccoc2)CC1)c1ccccc1Br : LiHisRS: 23.08%; Pks13 thioesterase: -12.42%; MtTrpRS: -0.4989%; TcHisRS: 6.612%
- COc1ccc(OC)c(C2CCN(C(=O)[C@H]3CC[C@@H](O)CC3)C2)c1 (stereo partly drawn) : LiHisRS: -10.53%; Pks13 thioesterase: -33.89%; MtTrpRS: -0.5198%; TcHisRS: 5.028%
- Cc1ccccc1C(C#N)NC(=O)CCCOc1cccnc1 (stereo not drawn) : LiHisRS: 9.574%; Pks13 thioesterase: -12.05%; MtTrpRS: -0.2581%; TcHisRS: 8.081%
- CC(C)c1nccc(C2(c3ccccc3Cl)CCNCC2)n1 : LiHisRS: 24.71%; Pks13 thioesterase: -6.939%; MtTrpRS: 1.743%; TcHisRS: 2.242%
- CNC(=O)NCC1CCC2(CCN(C(=O)c3ccccn3)CC2)CO1 (stereo not drawn) : LiHisRS: 10%; Pks13 thioesterase: -10.06%; TcHisRS: 5.291%